# Assay results published in patent US5700779A (Cortech, Inc., priority 1996, dated 1997).
# Test: solid-phase peptide synthesis
# Conditions: whole synthesis, scale 0.5 meq
substance,measurement,value
D-Arg-Arg-Pro-Hyp-Gly-Thi-Ser-NPeg-Oic-Arg,crude mass,487 mg
